# Assay results reported in paper PMC7897486.
# Chains of the proteins cited; added tags and fusions are not shown.
# UniProt Q01167: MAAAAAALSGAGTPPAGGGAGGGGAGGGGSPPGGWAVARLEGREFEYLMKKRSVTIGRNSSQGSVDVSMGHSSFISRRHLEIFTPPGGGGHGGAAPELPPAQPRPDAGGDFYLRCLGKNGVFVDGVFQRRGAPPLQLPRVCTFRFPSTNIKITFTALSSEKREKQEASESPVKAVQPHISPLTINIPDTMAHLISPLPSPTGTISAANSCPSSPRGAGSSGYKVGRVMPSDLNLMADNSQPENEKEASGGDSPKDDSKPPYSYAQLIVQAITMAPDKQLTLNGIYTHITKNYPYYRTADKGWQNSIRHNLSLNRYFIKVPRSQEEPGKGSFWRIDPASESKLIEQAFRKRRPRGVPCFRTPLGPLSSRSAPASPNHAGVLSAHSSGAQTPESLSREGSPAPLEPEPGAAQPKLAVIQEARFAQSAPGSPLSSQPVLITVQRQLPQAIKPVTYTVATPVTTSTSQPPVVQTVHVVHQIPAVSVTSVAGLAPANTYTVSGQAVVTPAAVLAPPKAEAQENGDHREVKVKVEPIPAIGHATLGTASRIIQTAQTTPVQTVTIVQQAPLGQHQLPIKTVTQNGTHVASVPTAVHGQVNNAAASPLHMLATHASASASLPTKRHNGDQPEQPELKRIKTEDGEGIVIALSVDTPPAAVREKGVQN
# UniProt Q13547: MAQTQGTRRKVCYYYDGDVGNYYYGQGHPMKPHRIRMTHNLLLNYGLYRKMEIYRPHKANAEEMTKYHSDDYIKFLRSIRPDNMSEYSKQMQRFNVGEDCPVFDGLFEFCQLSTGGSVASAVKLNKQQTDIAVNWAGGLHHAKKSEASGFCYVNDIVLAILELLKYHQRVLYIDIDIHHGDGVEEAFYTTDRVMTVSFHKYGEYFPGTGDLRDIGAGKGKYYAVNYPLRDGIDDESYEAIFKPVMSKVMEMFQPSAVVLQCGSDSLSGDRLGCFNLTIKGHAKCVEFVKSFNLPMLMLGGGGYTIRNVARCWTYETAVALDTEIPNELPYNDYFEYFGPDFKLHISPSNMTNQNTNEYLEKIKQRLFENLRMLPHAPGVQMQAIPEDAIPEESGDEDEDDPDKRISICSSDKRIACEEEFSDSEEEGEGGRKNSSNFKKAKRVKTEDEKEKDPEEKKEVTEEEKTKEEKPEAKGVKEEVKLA
# These are yes or no findings as the source states them, for the method shown. In cells and extracts the contact can be indirect. Some results given as binding are weak or reduced against the parent protein; the word gives no strength.
# Biological target: FOXK2 with a C-terminal HA-eDHFR degron, expressed from the endogenous locus (H1-FOXK2-DHFR ESCs) (human (endogenous in H1 ESCs)) (UniProt Q01167)
# Assay: co-IP; immunoprecipitation with anti-FOXK2 antibody (Bethyl A301-729A) from whole cell lysates of H1-FOXK2-DHFR ESCs cultured with 10 uM TMP (FOXK2 stable) or without TMP (FOXK2 degraded); Western blot
substance,measurement,value
HDAC1 (from UniProt Q13547 1-482),binding,binds
